Measured values taken from publication PMC9484696.
Results are given in words; binding and its absence hold for the method and conditions named. Binding seen in cells or lysates may run through a third protein. Here binding means that the protein was enriched with, or labelled near, the bait; the list need not be complete. For some assays here: Where a sequence is shown, tags or fusion partners need not be part of it.

Protein sequences, listed by entry. Tags and fused reporters are not part of them. Residues count along the entry.
UniProt P42081, residues 24-247: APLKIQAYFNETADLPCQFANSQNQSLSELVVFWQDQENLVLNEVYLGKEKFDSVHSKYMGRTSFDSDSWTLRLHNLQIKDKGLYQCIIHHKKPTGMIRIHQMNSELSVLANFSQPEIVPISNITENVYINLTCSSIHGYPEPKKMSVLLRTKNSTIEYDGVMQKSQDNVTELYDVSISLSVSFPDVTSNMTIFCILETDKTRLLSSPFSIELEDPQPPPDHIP
UniProt Q9NNX6, residues 59-404: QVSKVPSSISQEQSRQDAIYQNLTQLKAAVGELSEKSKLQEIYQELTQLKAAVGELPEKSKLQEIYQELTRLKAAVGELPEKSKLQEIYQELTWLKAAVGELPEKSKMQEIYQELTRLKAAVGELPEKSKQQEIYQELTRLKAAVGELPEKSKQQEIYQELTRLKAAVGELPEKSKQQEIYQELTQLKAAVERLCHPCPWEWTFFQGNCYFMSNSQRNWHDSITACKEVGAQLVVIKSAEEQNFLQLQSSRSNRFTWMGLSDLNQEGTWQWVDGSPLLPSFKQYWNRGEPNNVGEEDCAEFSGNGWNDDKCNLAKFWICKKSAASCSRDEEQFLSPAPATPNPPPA
UniProt O00206, residues 24-631: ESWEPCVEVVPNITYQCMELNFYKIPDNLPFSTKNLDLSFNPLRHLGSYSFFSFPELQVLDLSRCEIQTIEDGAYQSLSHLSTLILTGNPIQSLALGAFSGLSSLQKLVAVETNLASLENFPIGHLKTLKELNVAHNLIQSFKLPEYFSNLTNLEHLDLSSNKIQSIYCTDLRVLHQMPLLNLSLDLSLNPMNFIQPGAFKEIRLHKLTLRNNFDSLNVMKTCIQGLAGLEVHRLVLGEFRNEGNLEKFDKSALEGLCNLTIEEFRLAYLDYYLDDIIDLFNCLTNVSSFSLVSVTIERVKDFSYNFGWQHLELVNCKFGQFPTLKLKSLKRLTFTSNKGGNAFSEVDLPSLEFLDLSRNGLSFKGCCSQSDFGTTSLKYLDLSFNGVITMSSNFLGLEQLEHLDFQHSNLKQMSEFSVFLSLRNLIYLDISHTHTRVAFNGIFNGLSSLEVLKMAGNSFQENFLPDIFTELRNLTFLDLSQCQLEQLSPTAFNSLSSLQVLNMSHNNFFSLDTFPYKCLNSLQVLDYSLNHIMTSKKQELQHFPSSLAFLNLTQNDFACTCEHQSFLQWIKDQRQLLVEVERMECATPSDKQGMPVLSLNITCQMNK

Experiments:
[1] = target: T1, human CD14 receptor bait protein with Fc-tag (human) (UniProt P08571); test: affinity purification with mass spectrometry; Fc-tagged receptor baits on protein A beads (TLR4 with 6XHis on nickel beads) incubated with precleared Ae. aegypti salivary gland extract at 4°C for 1 h, washed with PBS; in a second set-up the extract met the receptor first and then the beads; bands cut from SDS-PAGE and identified by mass spectrometry; only the target purified
T1 sequence: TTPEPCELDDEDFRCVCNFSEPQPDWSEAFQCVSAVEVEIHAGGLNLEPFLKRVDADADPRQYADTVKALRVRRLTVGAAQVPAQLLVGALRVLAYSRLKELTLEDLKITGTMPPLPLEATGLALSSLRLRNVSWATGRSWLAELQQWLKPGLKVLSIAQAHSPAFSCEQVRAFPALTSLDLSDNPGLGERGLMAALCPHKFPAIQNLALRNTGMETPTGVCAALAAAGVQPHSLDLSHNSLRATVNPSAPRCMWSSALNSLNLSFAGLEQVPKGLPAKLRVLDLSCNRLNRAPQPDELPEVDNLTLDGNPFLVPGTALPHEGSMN

[2] = target: human CD86 receptor bait protein with Fc-tag (human) (UniProt P42081); test: as above
[3] = target: human DC-SIGN receptor bait protein with Fc-tag (human) (UniProt Q9NNX6); test: as above
[4] = target: human TLR4 receptor bait protein with 6XHis-tag (human) (UniProt O00206); test: as above
[5] = target: human DC-SIGN receptor bait protein with Fc-tag (human) (UniProt Q9NNX6); test: affinity purification with mass spectrom; only the target purified

Binder	binding [1]	binding [2]	binding [3]	binding [4]	binding [5]
Apyrase (AAEL006347), from salivary gland extract (enzyme, UniProt P50635 25-562) TDNMPVNKDVSKLFPLTLIHINDLHARFEETNMKSNVCTQKDQCIAGIARVYQKIKDLLKEYESKNPIYLNAGDNFQGTLWYNLLRWNVTADFIKKLKPAAMTLGNHEFDHTPKGLAPYLAELNKEGIPTIVANLVMNNDPDLKSSKIPKSIKLTVGKRKIGIIGVLYDKTHEIAQTGKVTLSNAVEAVRREAAALKKDNIDIIVVLSHCSYEEDKKIAAEAGDDIDVIVGAHSHSFLYSPDSKQPHDPKDKVEGPYPTLVESKNKRKIPIVQAKSFGKYVGRLTLYFDEEGEVKNWEGYPVFIDHKVQQDPQILKDLVPWRAKVEAIGSTVVGETMIELDRDSCRDQECTLGVLYADGFADQYTNDTFRPFAIIQAGNFRNPIKVGKITNGDIIEAAPFGSTADLIRLKGADIWDVAEHSFALDDEGRTNCLQVSGLRIVIDISKPVRSRVKKIEVMDYTNPKSDKLKPLDKEAEYYIVVPSYLADGKDGFSAMKRATARRTGPLDSDVFKNYVEKIKKVDNLKLGRVIVCKGSKCT	binds	binds	binds	binds	–
Long-form D7 protein 1 (AAEL006417), from salivary gland extract (protein, UniProt Q0IF93 22-332) APLWDAKDPEQLRFITSRCMEDWYPKAKNPKAALQNWLGWKLEPSDDQATQCYTKCVLEKIGFYEPGEKRFKGVRVMQQWETFHKYLNADREKVHDLTSTFDFIPPLKSSSCSEVFEAFKKVNGKHSETIRAILFGKGESSKKYYQEKGVKIKQKEQSLFMHCEALNYPKGSPQRKDLCGIRKYQMGSGIVFERHMECIFKGLRYMTSKNELDVDEIARDFIVVKKKPDAMKAMMKTCKANLKEKNPGKIAVHYYKCLMNDSKVTNDFKEAFDYREVRSKDYFAALTGKLKPYSRSDVRKQVDDIDKIQCS	binds	–	–	–	–
Long-form D7 protein 2 (AAEL006424), from salivary gland extract (protein, UniProt P18153 18-321) STGPFDPEEMLFTFTRCMEDNLEDGPNRLPMLAKWKEWINEPVDSPATQCFGKCVLVRTGLYDPVAQKFDASVIQEQFKAYPSLGEKSKVEAYANAVQQLPSTNNDCAAVFKAYDPVHKAHKDTSKNLFHGNKELTKGLYEKLGKDIRQKKQSYFEFCENKYYPAGSDKRQQLCKIRQYTVLDDALFKEHTDCVMKGIRYITKNNELDAEEVKRDFMQVNKDTKALEKVLNDCKSKEPSNAGEKSWHYYKCLVESSVKDDFKEAFDYREVRSQIYAFNLPKKQVYSKPAVQSQVMEIDGKQCPQ	–	binds	binds	–	–
Ae. aegypti venom allergen-1 (AaVA-1, AAEL000793), from salivary gland extract (protein, UniProt A0A1S4EWW7 22-255) NYCDQSLCRRGPHVACNAPTQFGSACGQEPKFVKMDARMKNLLLKKHNELRAEIACGKHGFPQAARMPTLVWDDELAHIASFNARKCIFAHDKCRNTREFKFAGQNLAITAFAGYNFQAADRAENFTQEWFNEHKDCPKSYVDSYPMSHSGPQIGHFTQMVNDRAWKMGCSMVHYKNGRVIKYYLVCNYSMTNMIEEPIYTRGSAGSKCQTGQNPQYRGLCSPREKVRSESYRG	–	–	–	–	binds
